The results in this text go back to PMC8726653.

By UniProt entry, the sequences of proteins in these tests, tags left out.
UniProt O95721: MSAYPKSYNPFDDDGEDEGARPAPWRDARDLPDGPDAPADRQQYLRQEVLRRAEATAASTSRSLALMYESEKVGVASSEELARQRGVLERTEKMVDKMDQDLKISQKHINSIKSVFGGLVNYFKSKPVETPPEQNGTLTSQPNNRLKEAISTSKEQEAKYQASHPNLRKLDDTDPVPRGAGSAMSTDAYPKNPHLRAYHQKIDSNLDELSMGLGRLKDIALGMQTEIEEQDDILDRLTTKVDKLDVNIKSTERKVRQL

The target in this assay is GFP-SNAP29 (UniProt O95721). Put plainly: co-IP; cleared lysates of L929 cells stably expressing GFP-SNAP29; untreated, TQ (10 ng/ml TNF + 30 µM QVD) for indicated times, or TQ plus 5 µM GSK'872 or 5 µM necrostatin-1 for 4 h; anti-GFP beads; blot.

These are yes or no findings as the source states them, for the method shown. In cells and extracts the contact can be indirect. Some results given as binding are weak or reduced against the parent protein; the word gives no strength.

B1: VAMP8 (protein, UniProt O70404 1-101)
chain: MEEASGSAGNDRVRNLQSEVEGVKNIMTQNVERILSRGENLDHLRNKTEDLEATSEHFKTTSQKVARKFWWKNVKMIVIICVIVLIIVILIILFATGTIPT
With B1, the binding entry is “binds”.

B2: STX17 (protein, UniProt Q9D0I4 1-301)
chain: MSEDEEKVKLRRLEPAIQKFTKIVIPTDLERLRKHQINIEKYQRCRIWDKLHEEHINAGRTVQQLRSNIREMEKLCLKVHKDDLVLLKRMIDPVKEAAATATAEFLQLHLESVEELKKQVNDEELLQPSLTRSTTVDGVLHTGEAEAASQSLTQIYALPEIPQDQNAAESWETLEADLIELSHLVTDMSLLVSSQQEKIDSIADHVNSAAVNVEEGTKNLQKAAKYKLAALPVAGALIGGVVGGPIGLLAGFKVAGIAAALGGGVLGFTGGKLIQRRKQKMMEKLTSSCPDLPSQSDKKRS
B2: the binding entry is on record as “binds”.
